# Percent effect of library compounds

Chains of the proteins cited; added tags and fusions are not shown. Residues count along the entry.
UniProt Q4DA54, 1-478: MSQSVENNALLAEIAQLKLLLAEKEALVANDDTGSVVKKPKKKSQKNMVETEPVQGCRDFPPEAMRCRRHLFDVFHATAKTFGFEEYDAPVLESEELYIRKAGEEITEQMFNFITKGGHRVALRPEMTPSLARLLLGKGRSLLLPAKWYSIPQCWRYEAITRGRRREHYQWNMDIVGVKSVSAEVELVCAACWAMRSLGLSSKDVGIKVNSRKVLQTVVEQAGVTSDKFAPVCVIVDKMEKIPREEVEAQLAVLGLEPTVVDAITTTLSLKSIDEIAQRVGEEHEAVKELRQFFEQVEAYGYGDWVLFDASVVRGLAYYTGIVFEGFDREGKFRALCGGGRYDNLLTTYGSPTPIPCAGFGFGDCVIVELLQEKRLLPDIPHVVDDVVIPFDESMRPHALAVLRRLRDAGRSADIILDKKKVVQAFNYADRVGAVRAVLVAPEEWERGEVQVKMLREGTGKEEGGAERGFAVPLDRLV
UniProt A4I591, 1-473: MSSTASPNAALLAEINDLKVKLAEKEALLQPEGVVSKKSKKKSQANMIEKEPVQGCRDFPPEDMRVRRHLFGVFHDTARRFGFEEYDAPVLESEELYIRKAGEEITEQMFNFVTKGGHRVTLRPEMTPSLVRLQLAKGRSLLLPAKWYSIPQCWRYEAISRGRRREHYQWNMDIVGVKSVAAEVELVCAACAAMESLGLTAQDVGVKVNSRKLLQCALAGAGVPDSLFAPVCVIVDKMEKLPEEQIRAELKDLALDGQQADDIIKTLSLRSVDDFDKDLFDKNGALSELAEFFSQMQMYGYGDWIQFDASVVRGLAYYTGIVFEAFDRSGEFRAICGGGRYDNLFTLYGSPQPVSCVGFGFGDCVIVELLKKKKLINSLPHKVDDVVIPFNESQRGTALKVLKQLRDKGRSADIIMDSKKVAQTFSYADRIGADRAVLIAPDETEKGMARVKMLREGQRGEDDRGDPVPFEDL
UniProt Q8IDJ8, 1-583: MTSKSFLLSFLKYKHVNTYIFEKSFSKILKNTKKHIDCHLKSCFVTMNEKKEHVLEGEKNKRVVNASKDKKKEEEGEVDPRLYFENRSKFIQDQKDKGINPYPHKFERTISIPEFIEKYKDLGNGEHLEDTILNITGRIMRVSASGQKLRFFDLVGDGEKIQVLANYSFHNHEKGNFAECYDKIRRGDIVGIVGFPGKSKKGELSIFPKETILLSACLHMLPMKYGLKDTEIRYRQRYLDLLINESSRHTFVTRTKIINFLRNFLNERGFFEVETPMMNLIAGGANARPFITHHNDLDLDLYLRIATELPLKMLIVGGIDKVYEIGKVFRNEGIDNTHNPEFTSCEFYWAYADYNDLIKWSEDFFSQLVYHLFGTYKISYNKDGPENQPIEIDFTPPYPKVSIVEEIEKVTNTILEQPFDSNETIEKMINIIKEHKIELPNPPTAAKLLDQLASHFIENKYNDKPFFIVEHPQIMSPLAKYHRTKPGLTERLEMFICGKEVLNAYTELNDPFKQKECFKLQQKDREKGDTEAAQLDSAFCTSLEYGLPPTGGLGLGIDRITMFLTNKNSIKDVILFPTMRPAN

The values are deposited in ChEMBL (CHEMBL3988442, “University of Dundee, Small-Polar-MMV Screening Library” (2021)).

TcHisRS: 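Enzyme assay of histidyl-tRNA synthetase; the read-out is not stated. Target: Histidine-tRNA ligase, Trypanosoma cruzi CL Brener (UniProt Q4DA54). Compounds at 30 µM. Higher reads as stronger inhibition (inferred: compounds with an IC50 in retests scored well above the rest). About 69,000 compounds were tested under these conditions; 0.045% (about 31) showed 50% or more at least once.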
LiHisRS: 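Histidine-tRNA ligase, Leishmania infantum (UniProt A4I591). Enzyme assay of histidyl-tRNA synthetase; the read-out is not stated. Compounds at 30 µM. The record gives no direction; compounds that gave an IC50 in retests scored well above the rest, so higher reads as stronger inhibition. The assay is labelled LdHisRS but filed under L. infantum. Size under these conditions: about 69,000 compounds, about 410 of them at 50% or above in at least one test.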
PfKRS1: 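Enzyme assay of the cytosolic lysyl-tRNA synthetase in 384-well plates, read by luminescence. Target: Lysine-tRNA ligase, Plasmodium falciparum 3D7 (UniProt Q8IDJ8). Compounds at 30 µM. Direction is inferred from only a few compounds that gave an IC50; most scored high, so higher reads as stronger inhibition. About 69,000 compounds were tested under these conditions; 0.071% (about 49) showed 50% or more at least once.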

Results are given as percent effect. How 0% and 100% were set is not recorded. Most values in the screen are low, and negative values occur. This is an unselected part of the compounds tested.

| SMILES | TcHisRS | LiHisRS | PfKRS1 |
|---|---|---|---|
| `CC(C)c1nc(C2CCCN2c2ccnc(C3CCCC3)n2)no1` (stereo unspecified) | 7.937 | 8.219 | 0.9288 |
| `NS(=O)(=O)c1ccc(CNC(=O)c2ccc(Cl)cc2F)cc1` | 4.167 | 11.32 | -1.067 |
| `Cc1ccc(F)c(OC2(C(=O)O)CCN(C(=O)c3ccco3)CC2)c1` | 3.061 | 3.226 | 1.449 |
| `CC(C)C(O)CNC(=O)Nc1cccc(-c2nccs2)c1` (stereo unspecified) | 5.946 | 8.219 | 1.015 |
| `Cn1ccnc1Sc1ccc(N)cn1` | 8.808 | 91.01 | 4.429 |
| `COCCNc1cc(-c2ccccc2S(N)(=O)=O)c2cc[nH]c2n1` | 7.895 | 16.13 | 0.8145 |
| `CNC(=O)Cc1n[nH]c(-c2cncc(Br)c2)n1` | 4.386 | -42.48 | 4.847 |
| `Cc1cc(CN2C[C@@H]3COC[C@]3(CNC(=O)c3ccco3)C2)no1` | 7.143 | 23 | 1.59 |
| `O=C1NCC2(CCCN(C(=O)c3csc(-c4cccs4)n3)C2)O1` (stereo unspecified) | 3.093 | 12.64 | 3.521 |
| `O=C(NCCNC(=O)C1CCN(c2ncccn2)CC1)c1ccoc1` | 5.419 | 19.74 | 4 |
| `COc1c(C2CCCN2Cc2nc(C)c(C)o2)c(C)nn1C` (stereo unspecified) | 3.944 | 7.826 | 1.823 |
| `COCc1cccc(CNCc2c(C)nn(C)c2N(C)C)c1` | -1.504 | 33.33 | 3.107 |
| `CC(C)c1noc(CCC(=O)Nc2cc(C(F)(F)F)c[nH]c2=O)n1` | 8.046 | 12.9 | 7.055 |
| `COc1cccc2ccc(CN3CCN(c4ncccn4)CC3)nc12` | 13.1 | 24.44 | 4.679 |
| `CC(NC(=O)Nc1cc(F)ccc1N1CCCCC1)c1nncn1C` (stereo unspecified) | -0.7519 | 2.381 | -1.638 |
| `CCc1nnc2n1CCN(C(=O)c1ccc3c(c1)[nH]c(=O)n3C)C2` | 2.232 | 18.52 | 5.516 |
| `CC(C)c1cc(NCC(O)c2ccncc2)n2nccc2n1` (stereo unspecified) | 1.163 | 14.75 | -2.747 |
| `Fc1cccc(C2(CNC3CCSC3)CCOCC2)c1` (stereo unspecified) | 6.186 | 8.046 | 0.06859 |
| `CC(C)n1cc(CN2CCCN(C(=O)c3cccnc3O)CC2)cn1` | 2.062 | 9.677 | 1.441 |
| `O=C(CCNCC(F)(F)F)N1CCC(Nc2cccnn2)CC1` | -1.515 | 31.82 | -8.977 |
| `CC(C)(C)C(=O)NCC(=O)NCC1CCCS1` (stereo unspecified) | 5.357 | 16.13 | 1.753 |
| `CC(CCc1ccc(O)cc1)NC1CCN(C(=O)C(C)C)CC1` (stereo unspecified) | 3.571 | 15.56 | 2.907 |
| `Cc1ncc2c(n1)CCCC2NC(=O)c1ccc(Cn2cccn2)cc1` (stereo unspecified) | 13.86 | 23.08 | -0.02288 |
| `Cc1c(Cl)cccc1S(=O)(=O)NCC(O)c1cccn1C` (stereo unspecified) | 5.155 | 8.696 | 1.732 |
| `COc1ccccc1NC(=O)NCC(O)c1ccc(F)cc1F` (stereo unspecified) | 0.2865 | 8.772 | -3.65 |
| `CCCc1cc(=O)[nH]c(-c2ccccc2CN(C)CCC(C)C)n1` | -0.8 | 13.27 | -1.754 |
| `CN(CCCNC(=O)C1CCc2cn[nH]c2C1)c1ccc(F)cc1` (stereo unspecified) | 1.667 | 9.91 | -6.023 |
| `CN(CC(O)C1CC1)C(=O)c1ccc(-c2nc(C3CC3)no2)cc1` (stereo unspecified) | 4.762 | 8.889 | 2.151 |
| `O=C(NCCc1ccccn1)C1CC(=O)N(CC(F)(F)F)C1` (stereo unspecified) | 1.453 | 11.4 | 0.5293 |
| `O=C1CC[C@H]2[C@H](CCN2c2ncc(F)cn2)N1c1ccccc1` | -5.525 | 4.505 | 6.245 |
| `Cc1ncsc1CCN1CCN(C(=O)c2ccc(=O)[nH]c2)CC1` | 5.195 | 17.14 | 1.193 |
| `Cc1nc(C2CCCN(C(=O)c3sccc3C3CC3)C2)no1` (stereo unspecified) | 0.813 | 6.731 | 2.615 |
| `CN(CC(=O)N1CCN(c2ccccn2)CC1)c1ccc(Cl)cn1` | 9.231 | 12.24 | 2.666 |
| `c1cncc(CN2CCC(c3n[nH]c(C4CC4)n3)CC2)c1` | -6.897 | -2.632 | -2.264 |
| `COc1cccc(N2Cc3nc(=O)[nH]n3C2=O)c1` | 6.818 | 8.333 | 5.479 |
| `CNC(=O)c1cnc2n1CCN(Cc1cccnc1)C2` | 5.747 | 0 | 1.794 |
| `Cc1nc(CN2CCCC(NCc3ccc4ccccc4c3)C2)no1` (stereo unspecified) | 2.874 | 10.43 | 2.54 |
| `O=C(CC1COCCN1)N1CCC2(CCc3ccccc32)CC1` (stereo unspecified) | 2.646 | -4 | -1.917 |
| `COCCN1CCO[C@H]2CCN(C(=O)c3ccnnc3)CC[C@@H]21` | 4.908 | 1.709 | -0.7597 |
| `COCCN1CCN(Cc2cccc(C(N)=O)c2)CC1C` (stereo unspecified) | -2.642 | 31.08 | -0.8255 |
| `CC1CCCN(CCCNC(=O)Cc2csc(-c3ccoc3)n2)C1` (stereo unspecified) | 7.447 | 15.71 | 0.9124 |
| `O=C(CCn1cc(Cl)cn1)Nc1ccc2c(c1)OCCO2` | 6.14 | 17.86 | -0.08821 |
| `Cc1cc2n(n1)CC(CNCc1ccc(-n3cccn3)cc1)CN2` (stereo unspecified) | 14.2 | 25 | -2.517 |
| `COc1cccc(C(=O)NCc2ccccc2S(=O)(=O)N(C)C)c1` | 0 | 9.375 | -8.133 |
| `O=C(CN1C(=O)CCNC1=O)N1CCC(c2ccc(F)cc2)C1` (stereo unspecified) | -1.064 | 12.5 | -3.727 |
| `COCC1CC2(CCN(Cc3cccc(C#N)c3)CC2)CN1C(C)C` (stereo unspecified) | 5.785 | -3.636 | 1.644 |
| `O=C(Nc1cccnc1-n1cccn1)N1CCCC(N2CCCC2)C1` (stereo unspecified) | 4.972 | 7.292 | 2.114 |
| `CCCn1cc(CNCC(c2ccc(C)s2)N2CCOCC2)cn1` (stereo unspecified) | 1.724 | -6.25 | 0.7991 |
| `c1csc(CN2C[C@H](OCC3CC3)[C@H]3COC[C@H]32)n1` | 3.315 | 13.51 | 4.858 |
| `CC(C)(O)CCc1cccc(C(=O)NCC2CN(S(C)(=O)=O)CCO2)c1` (stereo unspecified) | 1.064 | -4.478 | -2.633 |

Some entries from above, unchanged:

{"smiles": "Cc1ncsc1CCN1CCN(C(=O)c2ccc(=O)[nH]c2)CC1", "TcHisRS": 5.195, "LiHisRS": 17.14, "PfKRS1": 1.193}
{"smiles": "Cc1nc(C2CCCN(C(=O)c3sccc3C3CC3)C2)no1", "stereo": "stereo unspecified", "TcHisRS": 0.813, "LiHisRS": 6.731, "PfKRS1": 2.615}
{"smiles": "COc1c(C2CCCN2Cc2nc(C)c(C)o2)c(C)nn1C", "stereo": "stereo unspecified", "TcHisRS": 3.944, "LiHisRS": 7.826, "PfKRS1": 1.823}
{"smiles": "COCC1CC2(CCN(Cc3cccc(C#N)c3)CC2)CN1C(C)C", "stereo": "stereo unspecified", "TcHisRS": 5.785, "LiHisRS": -3.636, "PfKRS1": 1.644}